{"source": "PubChem BioAssay AID624374", "about": "(Broad Institute, 2012)", "note": "This list was built around the results that the source calls inconclusive (neither active nor inactive); the mix of calls is not that of the screen. Active and inactive are the calls of the source. How the calls were made is not given here."}
{"test": "HEK293 cell viability, dose response, counter-screen for EBV LMP1 inhibitor project, dry powder, set 2 (AID 624374)", "settings": "HEK293 viability counterscreen, plate reader; at 35 µM (top of the series) unless noted"}
{"smiles": "O=C(Nc1ccc(C(F)(F)F)cc1)Nc1ccc2c(c1)[C@@H]1C[C@H](CC(=O)N3CCc4ccccc4C3)O[C@@H](CO)[C@@H]1O2", "activity change, negative = viability loss": "inconclusive: -11.8%"}
{"smiles": "CC(C)c1ccc(NC(=O)C[C@H]2CC[C@H]3[C@@H](COc4ccc(NC(=O)Nc5ccc(F)c(F)c5)cc4C(=O)N3C)O2)cc1", "activity change, negative = viability loss": "inconclusive: 9.76%"}
{"smiles": "O=C(C[C@@H]1CC[C@H]2[C@@H](COC[C@H](O)CN2Cc2ccc(Oc3ccccc3)cc2)O1)N1CCc2ccccc2C1", "activity change, negative = viability loss": "inactive: -2.75%"}
{"smiles": "C[C@H](NC(=O)C[C@H]1C=C[C@@H](NC(=O)Cc2ccccn2)[C@@H](CO)O1)c1ccccc1", "activity change, negative = viability loss": "inactive: -1.38%"}
{"smiles": "O=C(C[C@H]1C[C@H]2c3cc(NC(=O)c4ccc5c(c4)OCO5)ccc3O[C@H]2[C@H](CO)O1)NCc1ccc(Oc2ccccc2)cc1", "activity change, negative = viability loss": "inactive: -11.7%"}
{"smiles": "C[C@H]1CN([C@@H](C)CO)C(=O)c2c(c3ccccc3n2C)-c2ccccc2CO[C@@H]1CN(C)C(=O)Nc1ccc(F)cc1", "activity change, negative = viability loss": "inactive: 2.63%"}
{"smiles": "Cc1noc(C)c1S(=O)(=O)Nc1ccc2c(c1)C(=O)N([C@@H](C)CO)C[C@H](C)[C@H](CN(C)Cc1ccc(C(F)(F)F)cc1)OCCCC[C@@H](C)O2", "activity change, negative = viability loss": "inactive: 11.8% [at 30 µM]"}
{"smiles": "CN1C(=O)c2cc(NC(=O)c3ccc(C(F)(F)F)cc3)ccc2OC[C@@H]2O[C@@H](CC(=O)NC3Cc4ccccc4C3)CC[C@H]21", "activity change, negative = viability loss": "inconclusive: 26.1%"}
{"smiles": "O=C(C[C@@H]1C[C@H]2c3cc(NS(=O)(=O)c4ccc(F)cc4)ccc3O[C@H]2[C@@H](CO)O1)NC1CCCCC1", "activity change, negative = viability loss": "inconclusive: 2.19%"}
{"smiles": "O=C(C[C@H]1C[C@@H]2c3cc(NC(=O)c4ccc5c(c4)OCO5)ccc3O[C@@H]2[C@@H](CO)O1)NCc1ccc(Oc2ccccc2)cc1", "activity change, negative = viability loss": "inactive: -3.98%"}
{"smiles": "Cc1cc(C(=O)Nc2ccc3c(c2)C(=O)N(C)[C@H]2CC[C@@H](CC(=O)NCc4ccc(-c5ccccc5)cc4)O[C@H]2CO3)no1", "activity change, negative = viability loss": "inconclusive: 4.95%"}
{"smiles": "Cc1cc(C(=O)Nc2ccc3c(c2)C(=O)N(C)[C@@H]2CC[C@H](CC(=O)NCc4ccc(-c5ccccc5)cc4)O[C@@H]2CO3)no1", "activity change, negative = viability loss": "inconclusive: -5.06%"}
{"smiles": "C[C@H](CO)N1C[C@H](C)[C@H](CN(C)C(=O)NC2CCCCC2)Oc2cc(/C=C/c3ccccc3)ccc2S1(=O)=O", "activity change, negative = viability loss": "inconclusive: -1.09%"}
{"smiles": "COc1cccc(S(=O)(=O)N(C)C[C@H]2Oc3cc(C4=CCCCC4)ccc3S(=O)(=O)N([C@@H](C)CO)C[C@@H]2C)c1", "activity change, negative = viability loss": "inactive: 9.06%"}
{"smiles": "O=C(Nc1ccc(C(F)(F)F)cc1)Nc1ccc2c(c1)[C@H]1C[C@@H](CC(=O)N3CCc4ccccc4C3)O[C@@H](CO)[C@H]1O2", "activity change, negative = viability loss": "inconclusive: -0.237%"}
{"smiles": "Cc1ccc(S(=O)(=O)N(C)C[C@H]2Oc3cc(C#Cc4ccncc4)ccc3S(=O)(=O)N([C@@H](C)CO)C[C@H]2C)cc1", "activity change, negative = viability loss": "inconclusive: 20.4%"}
{"smiles": "C[C@@H]1CN([C@H](C)CO)S(=O)(=O)c2ccc(/C=C/c3ccccc3)cc2O[C@H]1CN(C)C(=O)NC1CCCCC1", "activity change, negative = viability loss": "inconclusive: 7.82%"}
{"smiles": "CN(C)C(=O)c1ccc(-c2cccc(-c3nc(C(=O)NCc4ccccc4)cc4c3[C@@H](CCO)N([S@](=O)C(C)(C)C)C4)c2)cc1", "activity change, negative = viability loss": "inconclusive: 0.187%"}
{"smiles": "COc1cccc(S(=O)(=O)N(C)C[C@@H]2Oc3cc(C4=CCCCC4)ccc3S(=O)(=O)N([C@@H](C)CO)C[C@@H]2C)c1", "activity change, negative = viability loss": "inactive: -1.39%"}
{"smiles": "COc1ccccc1C#Cc1ccc2c(c1)O[C@H](CN(C)Cc1cccnc1)[C@@H](C)CN([C@@H](C)CO)S2(=O)=O", "activity change, negative = viability loss": "inconclusive: 15.6%"}
{"smiles": "O=C(Nc1ccc(C(F)(F)F)cc1)Nc1ccc2c(c1)[C@@H]1C[C@H](CC(=O)N3CCc4ccccc4C3)O[C@H](CO)[C@@H]1O2", "activity change, negative = viability loss": "inactive: -11.3%"}
{"smiles": "COc1ccc(NC(=O)N(C)C[C@@H]2Oc3cc(C#CCC(C)C)ccc3S(=O)(=O)N([C@@H](C)CO)C[C@@H]2C)cc1", "activity change, negative = viability loss": "inconclusive: -6.43%"}
{"smiles": "COc1cccc(S(=O)(=O)N(C)C[C@@H]2Oc3cc(C4=CCCCC4)ccc3S(=O)(=O)N([C@@H](C)CO)C[C@H]2C)c1", "activity change, negative = viability loss": "inconclusive: -10%"}
{"smiles": "O=C(Nc1ccc(C(F)(F)F)cc1)Nc1ccc2c(c1)[C@H]1C[C@H](CC(=O)N3CCc4ccccc4C3)O[C@H](CO)[C@H]1O2", "activity change, negative = viability loss": "inconclusive: 1.2%"}
{"smiles": "CCCNC(=O)c1cc2c(c(-c3cccc(-c4cccc(F)c4)c3)n1)[C@H](CCO)N([S@@](=O)C(C)(C)C)C2", "activity change, negative = viability loss": "inconclusive: 25.5%"}
{"smiles": "Cc1cc(C(=O)Nc2ccc3c(c2)C(=O)N(C)[C@@H]2CC[C@H](CC(=O)NCc4ccc(-c5ccccc5)cc4)O[C@H]2CO3)no1", "activity change, negative = viability loss": "inconclusive: -0.506% [at 30 µM]"}
{"smiles": "CN1C(=O)c2cc(NC(=O)c3ccc(C(F)(F)F)cc3)ccc2OC[C@@H]2O[C@H](CC(=O)NC3Cc4ccccc4C3)CC[C@H]21", "activity change, negative = viability loss": "inconclusive: -5.38%"}
{"smiles": "CN1C(=O)c2cc(NC(=O)c3ccc(C(F)(F)F)cc3)ccc2OC[C@H]2O[C@@H](CC(=O)NC3Cc4ccccc4C3)CC[C@H]21", "activity change, negative = viability loss": "inconclusive: 2.57%"}
{"smiles": "CC(=O)N(C)C[C@@H]1Oc2cc(C#Cc3ccc(F)cc3)ccc2S(=O)(=O)N([C@H](C)CO)C[C@H]1C", "activity change, negative = viability loss": "inconclusive: -5.87%"}
{"smiles": "CC(C)(C)[S@@](=O)N1Cc2cc(C(=O)NCCc3ccncc3)nc(-c3cccc(-c4cccnc4)c3)c2[C@H]1CCO", "activity change, negative = viability loss": "inconclusive: -3.46%"}
{"smiles": "COc1ccc(CNC(=O)c2cc3c(c(-c4cccc(-c5ccc(C#N)cc5)c4)n2)[C@@H](CCO)N([S@](=O)C(C)(C)C)C3)cc1", "activity change, negative = viability loss": "inconclusive: 3.49%"}
